Results are given in words; binding and its absence hold for the method and conditions named. Binding seen in cells or lysates may run through a third protein. These calls come from enrichment with a bait or labelling near it, and not all partners need be listed.
B1: syntaxin Stx5 (protein, UniProt Q13190 1-355)
chain: MIPRKRYGSKNTDQGVYLGLSKTQVLSPATAGSSSSDIAPLPPPVTLVPPPPDTMSCRDRTQEFLSACKSLQTRQNGIQTNKPALRAVRQRSEFTLMAKRIGKDLSNTFAKLEKLTILAKRKSLFDDKAVEIEELTYIIKQDINSLNKQIAQLQDFVRAKGSQSGRHLQTHSNTIVVSLQSKLASMSNDFKSVLEVRTENLKQQRSRREQFSRAPVSALPLAPNHLGGGAVVLGAESHASKDVAIDMMDSRTSQQLQLIDEQDSYIQSRADTMQNIESTIVELGSIFQQLAHMVKEQEETIQRIDENVLGAQLDVEAAHSEILKYFQSVTSNRWLMVKIFLILIVFFIIFVVFLA
B2: DCAKD (protein, UniProt Q8WVC6 1-231)
chain: MFLVGLTGGIASGKSSVIQVFQQLGCAVIDVDVMARHVVQPGYPAHRRIVEVFGTEVLLENGDINRKVLGDLIFNQPDRRQLLNAITHPEIRKEMMKETFKYFLRGYRYVILDIPLLFETKKLLKYMKHTVVVYCDRDTQLARLMRRNSLNRKDAEARINAQLPLTDKARMARHVLDNSGEWSVTKRQVILLHTELERSLEYLPLRFGVLTGLAAIASLLYLLTHYLLPYA
B3: LAP2B (protein, UniProt P42167 1-454)
chain: MPEFLEDPSVLTKDKLKSELVANNVTLPAGEQRKDVYVQLYLQHLTARNRPPLPAGTNSKGPPDFSSDEEREPTPVLGSGAAAAGRSRAAVGRKATKKTDKPRQEDKDDLDVTELTNEDLLDQLVKYGVNPGPIVGTTRKLYEKKLLKLREQGTESRSSTPLPTISSSAENTRQNGSNDSDRYSDNEEDSKIELKLEKREPLKGRAKTPVTLKQRRVEHNQSYSQAGITETEWTSGSSKGGPLQALTRESTRGSRRTPRKRVETSEHFRIDGPVISESTPIAETIMASSNESLVVNRVTGNFKHASPILPITEFSDIPRRAPKKPLTRAEVGEKTEERRVERDILKEMFPYEASTPTGISASCRRPIKGAAGRPLELSDFRMEESFSSKYVPKYVPLADVKSEKTKKGRSIPVWIKILLFVVVAVFLFLVYQAMETNQVNPFSNFLHVDPRKSN
B4: UBL4A (protein, UniProt P11441 1-157)
chain: MQLTVKALQGRECSLQVPEDELVSTLKQLVSEKLNVPVRQQRLLFKGKALADGKRLSDYSIGPNSKLNLVVKPLEKVLLEEGEAQRLADSPPPQVWQLISKVLARHFSAADASRVLEQLQRDYERSLSRLTLDDIERLASRFLHPEVTETMEKGFSK
B5: UBE2J1 (protein, UniProt Q9Y385 1-318)
chain: METRYNLKSPAVKRLMKEAAELKDPTDHYHAQPLEDNLFEWHFTVRGPPDSDFDGGVYHGRIVLPPEYPMKPPSIILLTANGRFEVGKKICLSISGHHPETWQPSWSIRTALLAIIGFMPTKGEGAIGSLDYTPEERRALAKKSQDFCCEGCGSAMKDVLLPLKSGSDSSQADQEAKELARQISFKAEVNSSGKTISESDLNHSFSLTDLQDDIPTTFQGATASTSYGLQNSSAASFHQPTQPVAKNTSMSPRQRRAQQQSQRRLSTSPDVIQGHQPRDNHTDHGGSAVLIVILTLALAALIFRRIYLANEYIFDFEL
B6: golgin-84 (also known as GOLGA5) (protein, UniProt Q8TBA6 1-731)
chain: MSWFVDLAGKAEDLLNRVDQGAATALSRKDNASNIYSKNTDYTELHQQNTDLIYQTGPKSTYISSAADNIRNQKATILAGTANVKVGSRTPVEASHPVENASVPRPSSHFVRRKKSEPDDELLFDFLNSSQKEPTGRVEIRKEKGKTPVFQSSQTSSVSSVNPSVTTIKTIEENSFGSQTHEAASNSDSSHEGQEESSKENVSSNAACPDHTPTPNDDGKSHELSNLRLENQLLRNEVQSLNQEMASLLQRSKETQEELNKARARVEKWNADHSKSDRMTRGLRAQVDDLTEAVAAKDSQLAVLKVRLQEADQLLSTRTEALEALQSEKSRIMQDQSEGNSLQNQALQTFQERLHEADATLKREQESYKQMQSEFAARLNKVEMERQNLAEAITLAERKYSDEKKRVDELQQQVKLYKLNLESSKQELIDYKQKATRILQSKEKLINSLKEGSGFEGLDSSTASSMELEELRHEKEMQREEIQKLMGQIHQLRSELQDMEAQQVNEAESAREQLQDLHDQIAGQKASKQELETELERLKQEFHYIEEDLYRTKNTLQSRIKDRDEEIQKLRNQLTNKTLSNSSQSELENRLHQLTETLIQKQTMLESLSTEKNSLVFQLERLEQQMNSASGSSSNGSSINMSGIDNGEGTRLRNVPVLFNDTETNLAGMYGKVRKAASSIDQFSIRLGIFLRRYPIARVFVIIYMALLHLWVMIVLLTYTPEMHHDQPYGK
B7: CASP (encoded by CUX1; isoform 4) (protein, UniProt Q13948 1-678)
chain: MAANVGSMFQYWKRFDLQQLQRELDATATVLANRQDESEQSRKRLIEQSREFKKNTPEDLRKQVAPLLKSFQGEIDALSKRSKEAEAAFLNVYKRLIDVPDPVPALDLGQQLQLKVQRLHDIETENQKLRETLEEYNKEFAEVKNQEVTIKALKEKIREYEQTLKNQAETIALEKEQKLQNDFAEKERKLQETQMSTTSKLEEAEHKVQSLQTALEKTRTELFDLKTKYDEETTAKADEIEMIMTDLERANQRAEVAQREAETLREQLSSANHSLQLASQIQKAPDVEQAIEVLTRSSLEVELAAKEREIAQLVEDVQRLQASLTKLRENSASQISQLEQQLSAKNSTLKQLEEKLKGQADYEEVKKELNILKSMEFAPSEGAGTQDAAKPLEVLLLEKNRSLQSENAALRISNSDLSGRCAELQVRITEAVATATEQRELIARLEQDLSIIQSIQRPDAEGAAEHRLEKIPEPIKEATALFYGPAAPASGALPEGQVDSLLSIISSQRERFRARNQELEAENRLAQHTLQALQSELDSLRADNIKLFEKIKFLQSYPGRGSGSDDTELRYSSQYEERLDPFSSFSKRERQRKYLSLSPWDKATLSMGRLVLSNKMARTIGFFYTLFLHCLVFLVLYKLAWSESMERDCATFCAKKFADHLHKFHENDNGAAAGDLWQ

Amino acid sequences for entries named in this document (tags omitted). A change or cut given only in a name is not applied to a line headed by its entry.
UniProt O43681: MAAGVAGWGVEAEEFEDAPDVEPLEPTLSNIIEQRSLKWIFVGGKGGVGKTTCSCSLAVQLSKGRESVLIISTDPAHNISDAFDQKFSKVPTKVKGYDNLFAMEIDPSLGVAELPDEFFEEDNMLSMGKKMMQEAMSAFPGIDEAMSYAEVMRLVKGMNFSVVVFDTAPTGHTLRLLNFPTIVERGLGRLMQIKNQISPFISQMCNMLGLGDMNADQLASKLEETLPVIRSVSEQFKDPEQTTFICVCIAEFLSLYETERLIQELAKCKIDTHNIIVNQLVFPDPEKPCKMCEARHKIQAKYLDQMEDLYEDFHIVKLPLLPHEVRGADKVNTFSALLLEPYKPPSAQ

What follows are binders tested against c-Myc–TRC40_(D74E), ATPase-impaired trap mutant of TRC40 (UniProt O43681).

binding, binds:
B1
B2
B3
B4
B5

Molecular target: c-Myc–TRC40_(D74E), ATPase-impaired trap mutant of TRC40 (UniProt O43681)
Remark: another data set of the same source

binding, binds:
B6
B7

Reference: PMC6633398
